Measured values as given in publication PMC5110995.
These are yes or no findings as the source states them, for the method shown. Binding calls can cover weak binding; strength is not graded here. Where a sequence is shown, tags or fusion partners need not be part of it.

The chains behind the UniProt entries cited, without tags or fusion partners. Where a name states a change or a piece, a line headed by the entry shows the natural chain unless it says otherwise.
UniProt Q6PQQ3: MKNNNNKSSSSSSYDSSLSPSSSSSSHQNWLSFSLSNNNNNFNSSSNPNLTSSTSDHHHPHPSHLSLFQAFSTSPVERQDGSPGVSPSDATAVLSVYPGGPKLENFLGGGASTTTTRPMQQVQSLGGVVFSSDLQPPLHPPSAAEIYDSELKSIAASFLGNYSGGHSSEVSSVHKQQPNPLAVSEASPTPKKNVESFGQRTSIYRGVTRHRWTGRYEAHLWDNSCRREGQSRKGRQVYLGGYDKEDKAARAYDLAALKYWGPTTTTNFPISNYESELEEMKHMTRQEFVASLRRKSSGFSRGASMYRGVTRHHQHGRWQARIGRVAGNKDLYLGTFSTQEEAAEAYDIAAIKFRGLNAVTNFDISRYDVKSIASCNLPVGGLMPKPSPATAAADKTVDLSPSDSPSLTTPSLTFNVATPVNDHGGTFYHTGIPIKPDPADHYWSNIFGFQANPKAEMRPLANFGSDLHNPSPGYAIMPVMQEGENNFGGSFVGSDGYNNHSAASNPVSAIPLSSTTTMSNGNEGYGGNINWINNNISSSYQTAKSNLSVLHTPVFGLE

How the values were obtained:
[1] = biological target: T1, ETTIN (ETT)/ARF3 fused to the GAL4 DNA-binding domain (ETT-BD) (Arabidopsis) (UniProt O23661); assay: two-hybrid; yeast AH109, 28°C, cotransformation; YSD lacking Leu, Trp, adenine and His with 1, 2.5 and 5 mM 3-AT; no IAA (ETT-IND also with NAA or 2,4-D in the medium)
T1 sequence: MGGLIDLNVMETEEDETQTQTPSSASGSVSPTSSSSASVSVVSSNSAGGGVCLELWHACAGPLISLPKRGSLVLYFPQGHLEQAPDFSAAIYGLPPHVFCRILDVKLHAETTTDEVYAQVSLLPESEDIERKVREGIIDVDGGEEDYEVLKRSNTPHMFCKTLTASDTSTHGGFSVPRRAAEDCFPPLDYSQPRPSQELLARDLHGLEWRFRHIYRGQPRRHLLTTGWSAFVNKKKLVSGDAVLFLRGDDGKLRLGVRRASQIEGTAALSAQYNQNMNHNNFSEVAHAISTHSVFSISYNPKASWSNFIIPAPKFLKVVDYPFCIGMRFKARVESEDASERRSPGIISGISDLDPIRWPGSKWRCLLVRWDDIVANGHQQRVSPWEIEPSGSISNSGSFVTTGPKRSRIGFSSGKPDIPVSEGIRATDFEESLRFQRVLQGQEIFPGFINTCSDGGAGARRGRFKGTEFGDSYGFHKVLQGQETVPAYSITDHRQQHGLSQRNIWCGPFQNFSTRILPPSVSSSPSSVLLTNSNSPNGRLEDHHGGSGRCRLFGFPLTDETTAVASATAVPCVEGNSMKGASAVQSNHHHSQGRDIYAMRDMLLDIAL

[2] = biological target: T1, ETTIN (ETT)/ARF3 fused to the GAL4 DNA-binding domain (ETT-BD) (Arabidopsis); assay: two-hybrid; as a2, with IAA (dissolved in ethanol) added to the medium

binding [1] | binding [2] | Substance
binds | – | PLETHORA5 (PLT5) fused to the AD domain (from UniProt Q6PQQ3)
binds | binds | IND^D30G fused to the GAL4 activation domain (Arabidopsis)
